According to article PMC9775280:
Construct, isoform or probe ends are uncertain for at least one entry. Negatives hold for the conditions tested.

What was measured:
[1] = test system: proplatelet basic protein (PPBP); experiment: electrochemical aptasensor (DPV); conditions: 1 ng/mL, current below blank, attributed to physical adsorption; 5'-NH2; PBS as solvent, 100 uL sample; DPV -0.6 to 0 V, peak about -0.4 V; BSA-blocked electrode; salt and assay temperature not stated; commercial protein; single-stranded DNA
CA125 (CA125 standard) = CA125 (CA125 standard) (UniProt Q8WXI7); experiment: electrochemical aptasensor (DPV); conditions: 1 ng/mL, current below blank, attributed to physical adsorption; 5'-NH2; PBS as solvent, 100 uL sample; DPV -0.6 to 0 V, peak about -0.4 V; BSA-blocked electrode; salt and assay temperature not stated; commercial protein; single-stranded DNA

## GCCTGTAAGGTGGTCGGTGTGGCGAGTGTGTTAGGAGAGATTGC [CRP aptamer]
[1]
  binding result: no binding
CA125 (CA125 standard)
  binding result: no binding
